Assay results published in patent US20240210413.
The exact form of at least one protein or probe is not confirmed. For some assays here: At least one result comes from cells or an extract, where the contact may be indirect. For some assays here: No signal at the amounts used counts as a negative.

Tests used:
Experiment in all cases: binding assay
shrimp protein extract = settings: 3'-thiol (sh) after poly-T tail [3'-end thiol (SH) left out]; SERS intensity close to negative control; protein mixture; protein in an extract; protein details: whole protein extract (Kaiji kit); label: gold nanorod; single-stranded DNA; letters built from the parent sequence and the stated change
whole egg powder protein = settings: 3'-thiol (sh) after poly-T tail [3'-end thiol (SH) left out]; SERS intensity close to negative control; protein mixture; protein in an extract; protein details: 10 mg/mL whole egg powder solution; label: gold nanorod; single-stranded DNA; letters built from the parent sequence and the stated change
milk powder protein = settings: 3'-thiol (sh) after poly-T tail [3'-end thiol (SH) left out]; SERS intensity close to negative control; protein mixture; protein in an extract; protein details: 10 mg/mL milk powder solution; label: gold nanorod; single-stranded DNA; letters built from the parent sequence and the stated change
peanut protein extract = settings: 3'-thiol (sh) after poly-T tail [3'-end thiol (SH) left out]; SERS intensity close to negative control; protein mixture; protein in an extract; label: gold nanorod; single-stranded DNA; letters built from the parent sequence and the stated change
fish protein extract = settings: 3'-thiol (sh) after poly-T tail [3'-end thiol (SH) left out]; SERS intensity close to negative control; protein mixture; protein in an extract; protein details: whole protein extract (Kaiji kit); label: gold nanorod; single-stranded DNA; letters built from the parent sequence and the stated change
soybean protein extract = settings: 3'-thiol (sh) after poly-T tail [3'-end thiol (SH) left out]; SERS intensity close to negative control; protein mixture; protein in an extract; label: gold nanorod; single-stranded DNA; letters built from the parent sequence and the stated change
wheat gliadin (gluten) = settings: 3'-thiol (sh) after poly-T tail [3'-end thiol (SH) left out]; SERS gold nanorod dimer assay, 4-MBA signal at 1078 cm-1, 45 min room temperature; detection limit 35.06 ng/mL, quantitation limit 116.87 ng/mL; no Kd given; purified native protein; label: gold nanorod; single-stranded DNA; letters built from the parent sequence and the stated change
nut protein extract = settings: 3'-thiol (sh) after poly-T tail [3'-end thiol (SH) left out]; SERS intensity close to negative control; protein mixture; protein in an extract; label: gold nanorod; single-stranded DNA; letters built from the parent sequence and the stated change

Does “CCAGTCTCCCGTTTACCGCGCCTACACATGTCTGAATGCCTTTTTTTTTTTTTTTTTT [gliadin aptamer (Apt)]” bind (shrimp protein extract)?
Result: no binding

Does “CCAGTCTCCCGTTTACCGCGCCTACACATGTCTGAATGCCTTTTTTTTTTTTTTTTTT [gliadin aptamer (Apt)]” bind (whole egg powder protein)?
Result: no binding

Does “CCAGTCTCCCGTTTACCGCGCCTACACATGTCTGAATGCCTTTTTTTTTTTTTTTTTT [gliadin aptamer (Apt)]” bind (milk powder protein)?
Result: no binding

Does “CCAGTCTCCCGTTTACCGCGCCTACACATGTCTGAATGCCTTTTTTTTTTTTTTTTTT [gliadin aptamer (Apt)]” bind (peanut protein extract)?
Result: no binding

Does “CCAGTCTCCCGTTTACCGCGCCTACACATGTCTGAATGCCTTTTTTTTTTTTTTTTTT [gliadin aptamer (Apt)]” bind (fish protein extract)?
Result: no binding

Does “CCAGTCTCCCGTTTACCGCGCCTACACATGTCTGAATGCCTTTTTTTTTTTTTTTTTT [gliadin aptamer (Apt)]” bind (soybean protein extract)?
Result: no binding

Does “CCAGTCTCCCGTTTACCGCGCCTACACATGTCTGAATGCCTTTTTTTTTTTTTTTTTT [gliadin aptamer (Apt)]” bind (wheat gliadin (gluten))?
Result: binds

Does “CCAGTCTCCCGTTTACCGCGCCTACACATGTCTGAATGCCTTTTTTTTTTTTTTTTTT [gliadin aptamer (Apt)]” bind (nut protein extract)?
Result: no binding
